# Measurements reported in the supplement of paper PMC7238544.
# Counter-ions that a name gives are not always drawn. ± gives the standard deviation of the averaged measurements. This is one part of the list. The data scatter; read single values as rough.
# What was measured:
# hAMSC donor 1 [1] = assay: Hoechst total cell count ratio vs vehicle control; higher = more cells (less toxicity)
# hAMSC donor 2 [2] = assay: as above
# hAMSC donor 2 [3] = assay: transgenic luciferase activity (RLU/mg protein) fold change vs vehicle control (ratio); higher = more transgene expression
# hAMSC donor 1 [4] = assay: transfection efficiency (EGFP+ cells / Hoechst count) fold change vs vehicle control (ratio); hAMSC are human adipose-derived mesenchymal stem cells given an EGFP-luciferase plasmid by lipofection; higher = enhanced transfection
# hAMSC donor 2 [5] = assay: as above
# [6] = priming compound concentration 0.2 µM
# [7] = priming compound concentration 1.7 µM
# [8] = priming compound concentration 13 µM
Compound,Hoechst total cell count ratio (hAMSC donor 1 [1]; [6]),Hoechst total cell count ratio (hAMSC donor 1 [1]; [7]),Hoechst total cell count ratio (hAMSC donor 1 [1]; [8]),Hoechst total cell count ratio (hAMSC donor 2 [2]; [6]),Hoechst total cell count ratio (hAMSC donor 2 [2]; [7]),Hoechst total cell count ratio (hAMSC donor 2 [2]; [8]),transgenic luciferase activity (hAMSC donor 2 [3]; [7]),transfection efficiency (hAMSC donor 1 [4]; [6]),transfection efficiency (hAMSC donor 1 [4]; [7]),transfection efficiency (hAMSC donor 1 [4]; [8]),transfection efficiency (hAMSC donor 2 [5]; [6]),transfection efficiency (hAMSC donor 2 [5]; [7]),transfection efficiency (hAMSC donor 2 [5]; [8]),transgenic luciferase activity (hAMSC donor 2 [3]; [8])
Nc1c2c(nc3ccccc13)CCCC2 [Tacrine hydrochloride],1.28 ± 0.15,1.13 ± 0.17,1.38 ± 0.061,1.13 ± 0.024,1.2 ± 0.019,1.83 ± 0.21,0.453 ± 0.019,1.14 ± 0.19,1.33 ± 0.39,0.881 ± 0.089,1.06 ± 0.15,1.11 ± 0.2,1.02 ± 0.36,–
Cn1c(NCCN(CCO)CCCc2ccc([N+](=O)[O-])cc2)cc(=O)n(C)c1=O [Nifekalant hydrochloride],1.39 ± 0.17,1.16 ± 0.086,1.33 ± 0.14,1.09 ± 0.3,1.21 ± 0.096,1.59 ± 0.19,0.573 ± 0.031,1.04 ± 0.26,1.09 ± 0.16,1.2 ± 0.12,0.808 ± 0.11,1.93 ± 0.71,1.03 ± 0.17,–
CCCCC(=O)N(Cc1ccc(-c2ccccc2-c2nnn[nH]2)cc1)[C@H](C(=O)O)C(C)C [Valsartan],1.58 ± 0.28,1.07 ± 0.14,1.28 ± 0.49,1.26 ± 0.25,1.35 ± 0.11,1.03 ± 0.042,–,0.698 ± 0.15,1.17 ± 0.35,1.23 ± 0.18,0.948 ± 0.16,1.03 ± 0.055,0.926 ± 0.22,0.735 ± 0.069
COCCCC/C(=N\OCCN)c1ccc(C(F)(F)F)cc1 [Fluvoxamine maleate],1.16 ± 0.13,1.22 ± 0.18,1.35 ± 0.2,0.859 ± 0.25,1.14 ± 0.034,1.06 ± 0.086,–,0.677 ± 0.35,0.719 ± 0.11,0.63 ± 0.26,0.934 ± 0.13,1.01 ± 0.031,0.876 ± 0.21,1.3 ± 0.37
Cc1[nH]c(=O)c(C#N)cc1-c1ccncc1 [Milrinone],1.35 ± 0.22,1.28 ± 0.38,1.48 ± 0.45,1.12 ± 0.19,1.04 ± 0.094,1.06 ± 0.18,–,0.939 ± 0.2,1.33 ± 0.34,0.816 ± 0.19,1.07 ± 0.23,1.23 ± 0.032,0.961 ± 0.26,0.743 ± 0.016
CCOC(=O)c1ccc(OC(=O)CCCCCNC(=N)N)cc1 [Gabexate mesilate],1.82 ± 0.12,1.39 ± 0.16,2.29 ± 0.11,1.07 ± 0.22,1.01 ± 0.099,0.948 ± 0.089,–,0.805 ± 0.086,1.07 ± 0.08,0.512 ± 0.13,1.02 ± 0.096,1.28 ± 0.13,1.02 ± 0.11,0.697 ± 0.1
CN(C)CCC(c1ccc(Cl)cc1)c1ccccn1 (stereo not given) [Chlorpheniramine maleate],1.07 ± 0.059,1.24 ± 0.17,1.32 ± 0.12,0.828 ± 0.23,1.05 ± 0.094,1.04 ± 0.023,–,1.16 ± 0.28,1.4 ± 0.15,1.19 ± 0.26,1.16 ± 0.4,1.18 ± 0.072,1.14 ± 0.2,1.03 ± 0.51
CC[C@@H]1C(=O)OC[C@@H]1Cc1cncn1C [Pilocarpine hydrochloride],1.28 ± 0.016,1.29 ± 0.17,1.62 ± 0.49,1.21 ± 0.11,1.33 ± 0.062,0.894 ± 0.06,–,1.13 ± 0.13,1.04 ± 0.15,0.779 ± 0.28,0.888 ± 0.15,1.03 ± 0.22,0.844 ± 0.15,0.898 ± 0.092
CCCCc1nc(Cl)c(CO)n1Cc1ccc(-c2ccccc2-c2nnn[nH]2)cc1 [Losartan potassium],0.91 ± 0.15,1.49 ± 0.3,1.35 ± 0.027,1.03 ± 0.085,1.08 ± 0.028,1.11 ± 0.22,–,0.86 ± 0.17,0.891 ± 0.19,1.11 ± 0.14,0.92 ± 0.071,1.09 ± 0.11,1.21 ± 0.32,0.64 ± 0.097
N=C(N)NC(=O)c1nc(Cl)c(N)nc1N [Amiloride hydrochloride hydrate],1.48 ± 0.2,1.27 ± 0.14,1.36 ± 0.061,1.22 ± 0.074,1.2 ± 0.065,1.49 ± 0.065,0.53 ± 0.089,1.07 ± 0.3,1.26 ± 0.36,1.04 ± 0.11,0.913 ± 0.21,1.14 ± 0.085,1.14 ± 0.11,–
CC(CCCCC(=O)Nc1ccc(C(F)(F)F)cc1)NCCc1cnc[nH]1 (stereo not given) [HTMT dimaleate],1.47 ± 0.17,1.3 ± 0.23,1.39 ± 0.038,0.987 ± 0.081,0.999 ± 0.021,0.952 ± 0.068,–,0.752 ± 0.064,0.949 ± 0.18,0.881 ± 0.1,0.942 ± 0.29,1.19 ± 0.15,0.711 ± 0.033,0.677 ± 0.13
CN(C)CCC[C@@]1(c2ccc(F)cc2)OCc2cc(C#N)ccc21 [Escitalopram oxalate],1.62 ± 0.18,1.44 ± 0.031,1.52 ± 0.26,1.2 ± 0.14,1.26 ± 0.11,1.57 ± 0.23,0.41 ± 0.018,0.85 ± 0.29,1.2 ± 0.065,0.936 ± 0.055,0.927 ± 0.16,0.998 ± 0.25,0.979 ± 0.13,–
CN1C2CCCC1CC(NC(=O)c1nn(C)c3ccccc13)C2 (stereo not given) [Granisetron hydrochloride],1.48 ± 0.32,1.3 ± 0.37,1.31 ± 0.083,0.929 ± 0.072,1.04 ± 0.091,1.6 ± 0.25,0.534 ± 0.013,1.07 ± 0.3,1.04 ± 0.28,1.17 ± 0.089,1.11 ± 0.072,1.26 ± 0.044,0.914 ± 0.12,–
Oc1ccc(C2CNCCc3c2cc(O)c(O)c3Cl)cc1 (stereo not given) [Fenoldopam mesylate],1.63 ± 0.2,1.53 ± 0.035,1.55 ± 0.1,1.18 ± 0.24,1.02 ± 0.1,1.04 ± 0.16,0.852 ± 0.16,0.894 ± 0.057,0.951 ± 0.041,0.915 ± 0.26,0.994 ± 0.16,1.49 ± 0.091,1.35 ± 0.096,–
COc1ccc(CC(C)NCC(O)c2ccc(O)c(NC=O)c2)cc1 (stereo not given) [Formoterol fumarate dihydrate],1.2 ± 0.18,1.22 ± 0.33,1.51 ± 0.093,1.1 ± 0.23,1.2 ± 0.26,1.59 ± 0.15,0.51 ± 0.083,0.837 ± 0.25,1.34 ± 0.3,0.914 ± 0.2,0.772 ± 0.26,1.17 ± 0.057,0.889 ± 0.52,–

# Complete entries from above. Order of values: Hoechst total cell count ratio (hAMSC donor 1 [1]; [6])	Hoechst total cell count ratio (hAMSC donor 1 [1]; [7])	Hoechst total cell count ratio (hAMSC donor 1 [1]; [8])	Hoechst total cell count ratio (hAMSC donor 2 [2]; [6])	Hoechst total cell count ratio (hAMSC donor 2 [2]; [7])	Hoechst total cell count ratio (hAMSC donor 2 [2]; [8])	transgenic luciferase activity (hAMSC donor 2 [3]; [7])	transfection efficiency (hAMSC donor 1 [4]; [6])	transfection efficiency (hAMSC donor 1 [4]; [7])	transfection efficiency (hAMSC donor 1 [4]; [8])	transfection efficiency (hAMSC donor 2 [5]; [6])	transfection efficiency (hAMSC donor 2 [5]; [7])	transfection efficiency (hAMSC donor 2 [5]; [8])	transgenic luciferase activity (hAMSC donor 2 [3]; [8])
# CC(CCCCC(=O)Nc1ccc(C(F)(F)F)cc1)NCCc1cnc[nH]1 (stereo not given) [HTMT dimaleate] reads 1.47 ± 0.17	1.3 ± 0.23	1.39 ± 0.038	0.987 ± 0.081	0.999 ± 0.021	0.952 ± 0.068	–	0.752 ± 0.064	0.949 ± 0.18	0.881 ± 0.1	0.942 ± 0.29	1.19 ± 0.15	0.711 ± 0.033	0.677 ± 0.13
# COCCCC/C(=N\OCCN)c1ccc(C(F)(F)F)cc1 [Fluvoxamine maleate] reads 1.16 ± 0.13	1.22 ± 0.18	1.35 ± 0.2	0.859 ± 0.25	1.14 ± 0.034	1.06 ± 0.086	–	0.677 ± 0.35	0.719 ± 0.11	0.63 ± 0.26	0.934 ± 0.13	1.01 ± 0.031	0.876 ± 0.21	1.3 ± 0.37
